This passage reports binding results from paper PMC11957695.

Sequences of proteins named here, by UniProt entry; tags and fusion partners are left off. A change or cut given only in a name is not applied to a line headed by its entry. Residues count along the entry.
UniProt O00469: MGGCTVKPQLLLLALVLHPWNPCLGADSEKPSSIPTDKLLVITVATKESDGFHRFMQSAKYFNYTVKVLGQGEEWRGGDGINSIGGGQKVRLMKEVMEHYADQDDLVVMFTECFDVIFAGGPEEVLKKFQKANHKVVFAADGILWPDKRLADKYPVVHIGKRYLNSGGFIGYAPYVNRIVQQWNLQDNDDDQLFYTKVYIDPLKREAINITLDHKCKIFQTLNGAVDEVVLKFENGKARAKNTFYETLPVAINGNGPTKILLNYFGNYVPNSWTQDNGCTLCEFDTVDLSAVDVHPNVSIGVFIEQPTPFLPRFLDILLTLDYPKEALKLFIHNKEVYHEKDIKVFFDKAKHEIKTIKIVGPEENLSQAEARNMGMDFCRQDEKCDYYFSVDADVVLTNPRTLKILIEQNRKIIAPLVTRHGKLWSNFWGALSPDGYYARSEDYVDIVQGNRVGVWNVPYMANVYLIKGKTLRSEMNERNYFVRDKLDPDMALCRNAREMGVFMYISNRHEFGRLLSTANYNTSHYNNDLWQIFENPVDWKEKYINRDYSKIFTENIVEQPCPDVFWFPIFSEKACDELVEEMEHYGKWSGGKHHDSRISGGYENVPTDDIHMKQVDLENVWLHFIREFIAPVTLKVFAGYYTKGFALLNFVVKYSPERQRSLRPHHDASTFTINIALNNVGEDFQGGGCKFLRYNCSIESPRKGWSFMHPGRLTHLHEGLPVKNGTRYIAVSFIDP
UniProt Q96AY3, residues 27-582: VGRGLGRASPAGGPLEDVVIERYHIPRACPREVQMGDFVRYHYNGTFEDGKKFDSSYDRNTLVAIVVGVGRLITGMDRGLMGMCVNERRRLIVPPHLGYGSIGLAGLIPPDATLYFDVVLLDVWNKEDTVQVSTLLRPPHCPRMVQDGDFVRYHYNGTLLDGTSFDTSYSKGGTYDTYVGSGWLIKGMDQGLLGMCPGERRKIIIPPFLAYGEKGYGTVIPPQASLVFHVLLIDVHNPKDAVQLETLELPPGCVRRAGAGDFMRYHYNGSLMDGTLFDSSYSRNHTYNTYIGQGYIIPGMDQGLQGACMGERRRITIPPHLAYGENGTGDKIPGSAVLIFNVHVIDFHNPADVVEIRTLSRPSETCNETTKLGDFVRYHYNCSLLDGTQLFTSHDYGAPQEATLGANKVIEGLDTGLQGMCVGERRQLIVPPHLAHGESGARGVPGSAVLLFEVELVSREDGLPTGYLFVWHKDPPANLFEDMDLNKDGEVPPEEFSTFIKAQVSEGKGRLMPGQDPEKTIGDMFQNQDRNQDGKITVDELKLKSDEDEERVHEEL

For the test, the target named is Flag-tagged lysyl hydroxylase 2 (LH2) (human) (UniProt O00469). Put plainly: co-IP; H157 cells transfected with Flag-tagged LH2, LH2-Flag as bait; RIPA lysate, primary antibody and protein G agarose beads at 4°C overnight, 4 washes with RIPA; Western blot. For orientation: Immunoblotting shows a protein as a band on a membrane.

Results are given in words; binding and its absence hold for the method and conditions named. Binding seen in cells or lysates may run through a third protein. Binding can be weak; no strength is given.

Take FKBP65 (from UniProt Q96AY3 27-582): the binding entry is recorded as “binds”.
